According to PMC7584643:
No constants are given. Whether binding was seen depends on the method and setting. Binding seen in cells or lysates may run through a third protein. Some entries that bind do so weakly or less than the wild type.

By UniProt entry, the sequences of proteins in these tests, tags left out.
UniProt Q99708: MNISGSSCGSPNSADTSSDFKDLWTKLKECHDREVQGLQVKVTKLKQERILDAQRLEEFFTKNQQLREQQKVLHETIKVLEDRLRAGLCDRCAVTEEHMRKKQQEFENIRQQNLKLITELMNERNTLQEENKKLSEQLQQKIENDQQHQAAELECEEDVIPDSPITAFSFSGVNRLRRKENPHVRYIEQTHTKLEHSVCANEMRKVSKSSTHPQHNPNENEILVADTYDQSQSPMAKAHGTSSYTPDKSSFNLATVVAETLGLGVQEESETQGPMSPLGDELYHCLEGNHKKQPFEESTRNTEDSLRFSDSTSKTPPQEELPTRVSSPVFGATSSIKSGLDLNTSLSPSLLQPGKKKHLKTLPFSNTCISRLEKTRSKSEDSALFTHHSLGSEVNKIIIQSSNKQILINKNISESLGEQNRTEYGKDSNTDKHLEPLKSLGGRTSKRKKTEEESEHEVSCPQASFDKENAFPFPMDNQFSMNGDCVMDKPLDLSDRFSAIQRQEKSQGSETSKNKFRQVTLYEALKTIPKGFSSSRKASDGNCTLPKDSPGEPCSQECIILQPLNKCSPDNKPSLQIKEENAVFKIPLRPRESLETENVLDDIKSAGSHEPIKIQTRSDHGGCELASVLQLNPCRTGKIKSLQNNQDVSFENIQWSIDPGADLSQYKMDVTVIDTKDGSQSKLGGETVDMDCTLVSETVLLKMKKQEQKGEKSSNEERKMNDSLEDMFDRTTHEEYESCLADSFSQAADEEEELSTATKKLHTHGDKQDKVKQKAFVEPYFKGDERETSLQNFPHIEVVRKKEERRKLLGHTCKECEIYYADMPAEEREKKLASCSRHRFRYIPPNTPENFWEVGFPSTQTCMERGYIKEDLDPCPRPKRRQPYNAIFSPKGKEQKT

Experiments:
[1] = molecular target: FLAG–CtIP (full-length) (human) (UniProt Q99708); experiment: co-IP; FLAG–CtIP constructs transfected into HEK293T cells for 24 h; lysates in NETN buffer incubated with anti-FLAG agarose beads overnight at 4 °C; blotted for USP52
[2] = molecular target: CtIP (endogenous) (human (endogenous in HEK293T)) (UniProt Q99708); experiment: co-IP; HEK293T cell lysates precipitated with control IgG, anti-USP52 or anti-CtIP antibodies; endogenous proteins

binding [1]: binds
binding [2]: binds
B1: USP52 (endogenous) (protein, UniProt Q504Q3 1-1202)
chain: MNFEGLDPGLAEYAPAMHSALDPVLDAHLNPSLLQNVELDPEGVALEALPVQESVHIMEGVYSELHSVVAEVGVPVSVSHFDLHEEMLWVGSHGGHATSFFGPALERYSSFQVNGSDDIRQIQSLENGILFLTKNNLKYMARGGLIIFDYLLDENEDMHSLLLTDSSTLLVGGLQNHIIEIDLNTVQETQKYAVETPGVTIMRQTNRFFFCGHTSGKVSLRDLRTFKVEHEFDAFSGSLSDFDVHGNLLAACGFSSRLTGLACDRFLKVYDLRMMRAITPLQVHVDPAFLRFIPTYTSRLAIISQSGQCQFCEPTGLANPADIFHVNPVGPLLMTFDVSASKQALAFGDSEGCVHLWTDSPEPSFNPYSRETEFALPCLVDSLPPLDWSQDLLPLSLIPVPLTTDTLLSDWPAANSAPAPRRAPPVDAEILRTMKKVGFIGYAPNPRTRLRNQIPYRLKESDSEFDSFSQVTESPVGREEEPHLHMVSKKYRKVTIKYSKLGLEDFDFKHYNKTLFAGLEPHIPNAYCNCMIQVLYFLEPVRCLIQNHLCQKEFCLACELGFLFHMLDLSRGDPCQGNNFLRAFRTIPEASALGLILADSDEASGKGNLARLIQRWNRFILTQLHQDMQELEIPQAYRGAGGSSFCSSGDSVIGQLFSCEMENCSLCRCGSETVRASSTLLFTLSYPDGSKSDKTGKNYDFAQVLKRSICLDQNTQAWCDTCEKYQPTIQTRNIRHLPDILVINCEVNSSKEADFWRMQAEVAFKMAVKKHGGEISKNKEFALADWKELGSPEGVLVCPSIEELKNVWLPFSIRMKMTKNKGLDVCNWTDGDEMQWGPARAEEEHGVYVYDLMATVVHILDSRTGGSLVAHIKVGETYHQRKEGVTHQQWYLFNDFLIEPIDKHEAVQFDMNWKVPAILYYVKRNLNSRYNLNIKNPIEASVLLAEASLARKQRKTHTTFIPLMLNEMPQIGDLVGLDAEFVTLNEEEAELRSDGTKSTIKPSQMSVARITCVRGQGPNEGIPFIDDYISTQEQVVDYLTQYSGIKPGDLDAKISSKHLTTLKSTYLKLRFLIDIGVKFVGHGLQKDFRVINLMVPKDQVLDTVYLFHMPRKRMISLRFLAWYFLDLKIQGETHDSIEDARTALQLYRKYLELSKNGTEPESFHKVLKGLYEKGRKMDWKVPEPEGQTSPKNAAVFSSVLAL
